Only a part is listed here, and it is no random draw. At the low end of the ranking the order means little.
Columns and labels:
Assay in all cases: DAPPL (digital affinity profiling via proximity ligation, sequencing)
Settings in all cases: 10 mM Tris-HCl pH 7.5, 50 mM NaCl, 1 mM DTT, 4% glycerol, room temperature, 30 min; GST-TFs on glutathione beads, 16-mer random dsDNA library, 0.1% …; high values mean tight binding; double strand, one strand shown; scale: fold enrichment (6-mer frequency, TF over GST control)
[1] = biological target: T1, ELF3 (UniProt P78545)
T1 sequence: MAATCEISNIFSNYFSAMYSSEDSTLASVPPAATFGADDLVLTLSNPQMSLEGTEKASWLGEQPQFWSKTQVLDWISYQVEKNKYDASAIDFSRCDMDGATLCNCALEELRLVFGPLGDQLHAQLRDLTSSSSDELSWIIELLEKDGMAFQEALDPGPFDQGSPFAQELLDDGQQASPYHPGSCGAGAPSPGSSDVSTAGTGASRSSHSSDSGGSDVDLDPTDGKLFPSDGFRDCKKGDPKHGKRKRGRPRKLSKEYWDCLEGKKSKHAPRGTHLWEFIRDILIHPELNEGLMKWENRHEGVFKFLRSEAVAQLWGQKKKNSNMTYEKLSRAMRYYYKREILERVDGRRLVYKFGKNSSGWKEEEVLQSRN

The chains behind the UniProt entries cited, without tags or fusion partners. Where a name states a change or a piece, a line headed by the entry shows the natural chain unless it says otherwise.
UniProt Q9Y603: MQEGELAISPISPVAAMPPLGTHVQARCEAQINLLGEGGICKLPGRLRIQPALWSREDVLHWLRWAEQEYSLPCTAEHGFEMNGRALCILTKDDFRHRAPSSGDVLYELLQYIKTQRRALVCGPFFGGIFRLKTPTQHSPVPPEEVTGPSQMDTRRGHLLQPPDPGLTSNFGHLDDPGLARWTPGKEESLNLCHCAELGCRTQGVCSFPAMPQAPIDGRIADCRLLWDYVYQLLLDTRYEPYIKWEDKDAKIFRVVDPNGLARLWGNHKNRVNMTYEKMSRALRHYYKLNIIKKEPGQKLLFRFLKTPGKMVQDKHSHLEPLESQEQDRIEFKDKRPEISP
UniProt P41212: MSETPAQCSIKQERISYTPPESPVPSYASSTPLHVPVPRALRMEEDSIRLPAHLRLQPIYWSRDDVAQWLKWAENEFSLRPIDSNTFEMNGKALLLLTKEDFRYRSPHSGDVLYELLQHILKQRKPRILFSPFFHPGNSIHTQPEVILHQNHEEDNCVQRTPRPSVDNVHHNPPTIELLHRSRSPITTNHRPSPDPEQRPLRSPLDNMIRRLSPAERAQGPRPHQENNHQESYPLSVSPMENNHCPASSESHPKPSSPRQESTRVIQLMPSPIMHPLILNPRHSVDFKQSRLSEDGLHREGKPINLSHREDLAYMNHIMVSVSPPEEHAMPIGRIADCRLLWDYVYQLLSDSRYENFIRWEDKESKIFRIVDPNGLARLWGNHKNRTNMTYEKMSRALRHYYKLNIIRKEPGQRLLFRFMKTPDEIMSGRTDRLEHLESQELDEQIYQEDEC

[2] = biological target: ETV7 (UniProt Q9Y603)
[3] = biological target: ETV6 (UniProt P41212)

Row | Sequence | binding signal [1] | binding signal [2] | binding signal [3]
1 | CCAAAG | 0.843 | 0.919 | 0.836
2 | GACTGC | 0.793 | 0.967 | 0.897
3 | AGTCTT | 0.925 | 0.997 | 0.915
4 | GTACCA | 0.985 | 0.894 | 0.992
5 | AGATGG | 0.977 | 0.876 | 0.941
6 | ATCGAC | 1.14 | 1.28 | 1.21
7 | GTCTGG | 0.824 | 0.927 | 0.827
8 | AGCATG | 0.946 | 0.873 | 0.964
9 | TGAATG | 1.08 | 1.21 | 1.22
10 | TTAGTG | 0.93 | 0.958 | 0.917
11 | GTTGAT | 0.975 | 0.951 | 0.966
12 | AACGGT | 0.904 | 0.929 | 1.01
13 | CTTGAG | 0.944 | 0.982 | 0.926
14 | TCATCG | 0.993 | 0.97 | 0.975
15 | GGATTA | 0.739 | 0.929 | 0.908
16 | CATCAG | 0.909 | 0.985 | 0.867
17 | CTGGCG | 0.72 | 0.789 | 0.794
18 | GATCTG | 0.931 | 0.901 | 0.879
19 | TTAGAG | 0.929 | 0.927 | 0.84
20 | CCCAGA | 0.878 | 0.877 | 0.873
21 | CTGTGT | 0.99 | 0.89 | 0.836
22 | CAGTTC | 0.911 | 0.91 | 0.907
23 | CGTCAT | 0.933 | 0.958 | 0.948
24 | GCCTGT | 0.83 | 0.977 | 0.87
25 | TTGGGA | 0.887 | 0.956 | 0.854
26 | GATCGA | 0.82 | 0.822 | 0.87
27 | TGTAGA | 0.868 | 0.973 | 0.902
28 | GCCAGA | 0.627 | 0.643 | 0.649
29 | AAGGTC | 0.874 | 0.899 | 0.944
30 | TGGCGC | 0.977 | 0.846 | 0.916

Single records, from the list above.
GACTGC as listed: binding signal [1]: 0.793; binding signal [2]: 0.967; binding signal [3]: 0.897
TGGCGC as listed: binding signal [1]: 0.977; binding signal [2]: 0.846; binding signal [3]: 0.916
